This is one part of the list.
Tests used:
Assay in all cases: log2 fold change, soluble protein after heating vs DMSO (PISA); higher = thermal stabilisation; K562 lysate, 10 uM; active = over 0.2 and 3.5 SD of the protein, either way, in both replicates (recomputed)
lapatinib = compound: CS(=O)(=O)CCNCc1ccc(-c2ccc3ncnc(Nc4ccc(OCc5cccc(F)c5)c(Cl)c4)c3c2)o1 [lapatinib]
Method in brief: (§1)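 K562 pellets were dounce-homogenised in PBS pH 7.4 containing 1 mM MgCl2, and the crude extract, at 1 mg/mL protein, was exposed to 10 μM compound for 30 min. Aliquots were heated for 3 min across 48°C-58°C, pooled, brought to 0.5% NP-40 at 4°C and spun at 21,000xg for 90 min, with the supernatant taken as soluble protein. TMTpro 16plex LC-MS/MS with equalised channel sums quantified that protein. Values are log-two fold changes in thermal stability relative to solvent controls, taken from duplicates.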

The chains behind the UniProt entries cited, without tags or fusion partners. Where a name states a change or a piece, a line headed by the entry shows the natural chain unless it says otherwise.
UniProt Q12834, whole entry, looked up: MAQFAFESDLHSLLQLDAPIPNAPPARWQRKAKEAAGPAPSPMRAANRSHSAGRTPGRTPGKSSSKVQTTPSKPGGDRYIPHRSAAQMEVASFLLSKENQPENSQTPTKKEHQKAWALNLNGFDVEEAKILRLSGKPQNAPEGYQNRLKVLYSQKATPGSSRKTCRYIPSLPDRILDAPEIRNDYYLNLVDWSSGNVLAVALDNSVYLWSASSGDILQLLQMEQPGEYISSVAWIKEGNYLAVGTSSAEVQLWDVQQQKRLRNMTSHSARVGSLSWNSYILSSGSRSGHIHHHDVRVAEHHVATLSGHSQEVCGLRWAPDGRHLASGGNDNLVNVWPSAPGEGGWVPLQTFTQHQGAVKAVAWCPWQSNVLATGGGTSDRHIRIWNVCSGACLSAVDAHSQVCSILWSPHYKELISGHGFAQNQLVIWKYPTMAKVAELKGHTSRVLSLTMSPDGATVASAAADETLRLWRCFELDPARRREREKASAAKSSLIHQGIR
UniProt Q96G28: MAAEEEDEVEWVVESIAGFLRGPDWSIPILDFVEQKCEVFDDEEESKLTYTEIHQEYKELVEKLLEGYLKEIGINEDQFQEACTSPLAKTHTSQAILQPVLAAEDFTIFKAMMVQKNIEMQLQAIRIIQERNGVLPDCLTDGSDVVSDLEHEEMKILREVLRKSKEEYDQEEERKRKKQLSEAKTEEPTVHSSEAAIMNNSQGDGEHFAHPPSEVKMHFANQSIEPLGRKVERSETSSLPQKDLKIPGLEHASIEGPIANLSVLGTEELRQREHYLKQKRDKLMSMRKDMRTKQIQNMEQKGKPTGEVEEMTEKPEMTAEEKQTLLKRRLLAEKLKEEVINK
UniProt Q9UJX2, whole entry, looked up: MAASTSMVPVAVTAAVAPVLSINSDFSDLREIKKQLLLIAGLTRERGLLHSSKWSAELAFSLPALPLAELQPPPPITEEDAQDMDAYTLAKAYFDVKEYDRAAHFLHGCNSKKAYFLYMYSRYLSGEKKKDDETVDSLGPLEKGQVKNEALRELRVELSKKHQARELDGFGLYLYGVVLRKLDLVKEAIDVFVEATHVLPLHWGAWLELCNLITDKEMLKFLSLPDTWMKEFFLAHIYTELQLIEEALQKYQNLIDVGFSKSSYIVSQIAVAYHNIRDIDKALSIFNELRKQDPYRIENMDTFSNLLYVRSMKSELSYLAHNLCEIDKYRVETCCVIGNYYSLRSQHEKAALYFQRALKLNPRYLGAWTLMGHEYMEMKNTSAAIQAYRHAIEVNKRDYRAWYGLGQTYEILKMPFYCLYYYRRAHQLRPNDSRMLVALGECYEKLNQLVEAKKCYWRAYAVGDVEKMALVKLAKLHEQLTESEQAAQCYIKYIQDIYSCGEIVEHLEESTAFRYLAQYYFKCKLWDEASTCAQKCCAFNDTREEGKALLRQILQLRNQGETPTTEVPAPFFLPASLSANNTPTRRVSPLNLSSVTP
UniProt Q9Y232: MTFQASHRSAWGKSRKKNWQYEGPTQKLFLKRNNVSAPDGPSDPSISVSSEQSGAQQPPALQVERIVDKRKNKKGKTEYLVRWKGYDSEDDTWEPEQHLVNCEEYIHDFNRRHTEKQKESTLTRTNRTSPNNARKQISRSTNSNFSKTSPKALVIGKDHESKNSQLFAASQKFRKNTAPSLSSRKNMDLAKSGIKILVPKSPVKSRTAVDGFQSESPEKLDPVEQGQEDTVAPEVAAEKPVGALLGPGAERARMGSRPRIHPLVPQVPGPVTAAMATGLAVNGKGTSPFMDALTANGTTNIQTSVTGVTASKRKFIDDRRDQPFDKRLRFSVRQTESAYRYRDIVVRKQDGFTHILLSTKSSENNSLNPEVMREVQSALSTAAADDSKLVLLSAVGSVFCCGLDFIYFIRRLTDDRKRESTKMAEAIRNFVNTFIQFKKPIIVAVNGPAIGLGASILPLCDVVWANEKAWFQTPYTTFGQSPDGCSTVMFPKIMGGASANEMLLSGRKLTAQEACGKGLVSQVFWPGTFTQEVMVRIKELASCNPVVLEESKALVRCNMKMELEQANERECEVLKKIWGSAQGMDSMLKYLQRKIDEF
UniProt Q9UFW8: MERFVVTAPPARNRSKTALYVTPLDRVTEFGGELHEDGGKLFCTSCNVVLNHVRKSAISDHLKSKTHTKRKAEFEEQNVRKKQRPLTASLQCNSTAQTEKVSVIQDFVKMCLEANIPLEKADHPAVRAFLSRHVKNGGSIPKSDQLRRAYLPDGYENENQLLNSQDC
UniProt P41208: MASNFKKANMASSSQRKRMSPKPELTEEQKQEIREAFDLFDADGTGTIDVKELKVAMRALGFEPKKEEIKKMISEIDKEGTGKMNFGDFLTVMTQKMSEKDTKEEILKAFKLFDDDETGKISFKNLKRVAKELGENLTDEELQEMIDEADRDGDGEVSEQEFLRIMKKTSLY
UniProt P23528, whole entry, looked up: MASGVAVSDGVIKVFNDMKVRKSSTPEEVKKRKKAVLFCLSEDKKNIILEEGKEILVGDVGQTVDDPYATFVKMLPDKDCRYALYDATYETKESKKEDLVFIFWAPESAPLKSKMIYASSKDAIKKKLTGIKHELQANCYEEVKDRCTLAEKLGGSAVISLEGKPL
UniProt Q9BWU1: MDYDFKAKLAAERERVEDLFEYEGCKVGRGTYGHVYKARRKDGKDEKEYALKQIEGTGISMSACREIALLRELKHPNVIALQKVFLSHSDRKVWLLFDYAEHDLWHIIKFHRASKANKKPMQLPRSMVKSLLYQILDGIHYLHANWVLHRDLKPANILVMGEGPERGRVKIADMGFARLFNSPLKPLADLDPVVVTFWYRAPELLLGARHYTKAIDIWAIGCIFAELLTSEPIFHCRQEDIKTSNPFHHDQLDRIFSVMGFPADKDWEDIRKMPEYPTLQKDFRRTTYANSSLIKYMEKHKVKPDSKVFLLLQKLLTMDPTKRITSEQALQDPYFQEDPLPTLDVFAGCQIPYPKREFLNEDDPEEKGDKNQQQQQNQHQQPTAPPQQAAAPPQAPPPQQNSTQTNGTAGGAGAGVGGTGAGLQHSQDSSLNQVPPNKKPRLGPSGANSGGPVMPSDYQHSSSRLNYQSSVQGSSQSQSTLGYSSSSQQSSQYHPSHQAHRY
UniProt Q9BV73: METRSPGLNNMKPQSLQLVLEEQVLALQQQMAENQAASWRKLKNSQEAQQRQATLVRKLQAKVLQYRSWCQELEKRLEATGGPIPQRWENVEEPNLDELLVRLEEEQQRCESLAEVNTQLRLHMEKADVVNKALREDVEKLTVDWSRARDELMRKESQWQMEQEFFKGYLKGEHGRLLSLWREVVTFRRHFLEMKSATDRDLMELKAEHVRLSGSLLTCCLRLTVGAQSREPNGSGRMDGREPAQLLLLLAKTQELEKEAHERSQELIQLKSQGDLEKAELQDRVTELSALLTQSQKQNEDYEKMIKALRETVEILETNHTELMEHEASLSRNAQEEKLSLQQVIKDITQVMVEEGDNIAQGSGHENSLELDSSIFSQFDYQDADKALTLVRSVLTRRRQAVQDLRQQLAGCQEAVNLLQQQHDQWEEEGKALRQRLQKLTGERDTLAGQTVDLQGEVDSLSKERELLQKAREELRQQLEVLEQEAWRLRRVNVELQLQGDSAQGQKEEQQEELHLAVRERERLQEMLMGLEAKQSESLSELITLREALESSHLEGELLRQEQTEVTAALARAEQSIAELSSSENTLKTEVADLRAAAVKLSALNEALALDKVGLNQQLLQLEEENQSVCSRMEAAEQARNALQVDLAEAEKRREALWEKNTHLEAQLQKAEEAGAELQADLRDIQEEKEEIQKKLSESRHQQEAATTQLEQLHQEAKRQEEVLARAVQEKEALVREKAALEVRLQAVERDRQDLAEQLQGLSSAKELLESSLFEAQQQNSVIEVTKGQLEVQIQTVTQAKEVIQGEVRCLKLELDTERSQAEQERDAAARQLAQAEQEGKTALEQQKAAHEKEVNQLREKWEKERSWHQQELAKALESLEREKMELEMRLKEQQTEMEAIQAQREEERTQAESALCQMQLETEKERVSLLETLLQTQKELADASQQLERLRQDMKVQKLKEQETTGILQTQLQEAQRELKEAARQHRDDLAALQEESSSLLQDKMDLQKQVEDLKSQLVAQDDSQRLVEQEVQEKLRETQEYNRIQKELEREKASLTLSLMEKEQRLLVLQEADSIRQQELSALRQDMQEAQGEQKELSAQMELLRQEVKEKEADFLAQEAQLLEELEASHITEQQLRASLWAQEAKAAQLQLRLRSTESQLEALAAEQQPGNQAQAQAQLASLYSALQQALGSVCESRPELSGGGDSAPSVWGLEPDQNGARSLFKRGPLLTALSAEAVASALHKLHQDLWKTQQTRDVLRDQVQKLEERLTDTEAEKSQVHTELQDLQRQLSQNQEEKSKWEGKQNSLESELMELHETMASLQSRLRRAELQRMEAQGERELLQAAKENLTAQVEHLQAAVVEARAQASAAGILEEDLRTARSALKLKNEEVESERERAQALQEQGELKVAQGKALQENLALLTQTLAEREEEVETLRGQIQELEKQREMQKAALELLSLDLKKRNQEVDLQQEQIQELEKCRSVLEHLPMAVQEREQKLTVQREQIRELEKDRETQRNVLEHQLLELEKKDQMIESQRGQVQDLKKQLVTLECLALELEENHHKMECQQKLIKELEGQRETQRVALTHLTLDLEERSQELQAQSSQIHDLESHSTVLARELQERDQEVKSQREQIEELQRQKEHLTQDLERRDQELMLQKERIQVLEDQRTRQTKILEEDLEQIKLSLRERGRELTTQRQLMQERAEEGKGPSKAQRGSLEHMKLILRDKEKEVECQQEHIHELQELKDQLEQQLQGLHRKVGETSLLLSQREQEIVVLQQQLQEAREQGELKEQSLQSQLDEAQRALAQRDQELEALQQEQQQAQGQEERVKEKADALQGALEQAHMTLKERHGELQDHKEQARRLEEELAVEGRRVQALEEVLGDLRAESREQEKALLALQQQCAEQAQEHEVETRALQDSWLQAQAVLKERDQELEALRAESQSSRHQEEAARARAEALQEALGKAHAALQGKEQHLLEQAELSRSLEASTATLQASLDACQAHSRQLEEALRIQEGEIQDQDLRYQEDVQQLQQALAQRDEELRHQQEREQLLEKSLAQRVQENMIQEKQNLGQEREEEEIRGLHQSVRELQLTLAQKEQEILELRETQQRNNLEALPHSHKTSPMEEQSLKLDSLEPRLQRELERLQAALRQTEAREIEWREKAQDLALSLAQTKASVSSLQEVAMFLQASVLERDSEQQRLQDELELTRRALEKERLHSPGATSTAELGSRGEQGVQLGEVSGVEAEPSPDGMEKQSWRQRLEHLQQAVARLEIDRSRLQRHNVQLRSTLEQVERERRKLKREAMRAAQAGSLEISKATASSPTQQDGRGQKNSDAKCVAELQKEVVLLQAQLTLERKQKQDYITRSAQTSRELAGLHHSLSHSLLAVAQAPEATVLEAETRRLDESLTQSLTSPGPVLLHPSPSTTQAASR
UniProt O95319: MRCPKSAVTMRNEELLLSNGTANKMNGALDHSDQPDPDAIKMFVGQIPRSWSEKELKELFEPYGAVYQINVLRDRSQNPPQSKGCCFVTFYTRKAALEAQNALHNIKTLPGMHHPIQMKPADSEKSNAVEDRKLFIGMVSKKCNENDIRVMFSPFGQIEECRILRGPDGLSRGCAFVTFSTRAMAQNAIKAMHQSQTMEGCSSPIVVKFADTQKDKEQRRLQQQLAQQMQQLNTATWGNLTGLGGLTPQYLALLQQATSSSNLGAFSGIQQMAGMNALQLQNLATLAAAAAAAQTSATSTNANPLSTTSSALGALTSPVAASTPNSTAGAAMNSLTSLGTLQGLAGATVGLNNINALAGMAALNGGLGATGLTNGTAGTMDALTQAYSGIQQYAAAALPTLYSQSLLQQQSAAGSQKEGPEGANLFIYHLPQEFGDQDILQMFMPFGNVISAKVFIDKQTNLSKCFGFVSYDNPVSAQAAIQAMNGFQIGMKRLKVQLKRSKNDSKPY
UniProt Q9NXV6: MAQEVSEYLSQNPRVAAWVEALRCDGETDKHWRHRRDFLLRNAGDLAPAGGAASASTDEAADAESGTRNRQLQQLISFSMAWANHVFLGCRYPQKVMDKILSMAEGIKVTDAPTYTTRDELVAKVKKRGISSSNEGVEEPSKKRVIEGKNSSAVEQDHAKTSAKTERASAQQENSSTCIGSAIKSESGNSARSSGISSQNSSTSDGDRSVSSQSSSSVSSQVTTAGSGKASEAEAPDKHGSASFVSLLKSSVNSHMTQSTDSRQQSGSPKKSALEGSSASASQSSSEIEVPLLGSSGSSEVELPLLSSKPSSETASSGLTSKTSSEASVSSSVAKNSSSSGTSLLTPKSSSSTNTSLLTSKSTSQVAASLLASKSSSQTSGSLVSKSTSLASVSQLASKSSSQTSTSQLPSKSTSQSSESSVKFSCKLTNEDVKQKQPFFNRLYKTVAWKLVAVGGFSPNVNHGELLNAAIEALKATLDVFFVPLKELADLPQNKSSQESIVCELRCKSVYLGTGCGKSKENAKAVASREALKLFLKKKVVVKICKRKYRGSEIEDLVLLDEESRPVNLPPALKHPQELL

pictilisib = compound: CS(=O)(=O)N1CCN(Cc2cc3nc(-c4cccc5[nH]ncc45)nc(N4CCOCC4)c3s2)CC1 [pictilisib]
Method in brief: as §1

crizotinib = compound: C[C@@H](Oc1cc(-c2cnn(C3CCNCC3)c2)cnc1N)c1c(Cl)ccc(F)c1Cl [crizotinib]
Method in brief: as §1

[1] = compound: C[C@H](C1=CC=C(C=C1)C(=O)NC2=C3C=CNC3=NC=C2)N
Method in brief: as §1

duvelisib = compound: C[C@H](Nc1ncnc2nc[nH]c12)c1cc2cccc(Cl)c2c(=O)n1-c1ccccc1 [duvelisib]
Method in brief: as §1

gandotinib = compound: Cc1cc(Nc2cc(CN3CCOCC3)c3nc(C)c(Cc4ccc(Cl)cc4F)n3n2)n[nH]1 [gandotinib]
Method in brief: as §1

tozasertib = compound: Cc1cc(Nc2cc(N3CCN(C)CC3)nc(Sc3ccc(NC(=O)C4CC4)cc3)n2)n[nH]1 [tozasertib]
Method in brief: as §1

doramapimod = compound: Cc1ccc(-n2nc(C(C)(C)C)cc2NC(=O)Nc2ccc(OCCN3CCOCC3)c3ccccc23)cc1 [doramapimod]
Method in brief: as §1

bafetinib = compound: Cc1ccc(NC(=O)c2ccc(CN3CC[C@H](N(C)C)C3)c(C(F)(F)F)c2)cc1Nc1nccc(-c2cncnc2)n1 [bafetinib]
Method in brief: as §1

[2] = compound: Cc1cccc(CC(=O)N2CCc3c2ccc(-c2cn(C)c4ncnc(N)c24)c3F)n1
Method in brief: as §1

nilotinib = compound: Cc1cn(-c2cc(NC(=O)c3ccc(C)c(Nc4nccc(-c5cccnc5)n4)c3)cc(C(F)(F)F)c2)cn1 [nilotinib]
Method in brief: as §1

[3] = compound: Cc1nc(Nc2n[nH]c3c2CN(C(=O)N[C@H](CN(C)C)c2ccccc2)C3(C)C)c2sccc2n1
Method in brief: as §1

dasatinib = compound: Cc1nc(Nc2ncc(C(=O)Nc3c(C)cccc3Cl)s2)cc(N2CCN(CCO)CC2)n1 [dasatinib]
Method in brief: as §1

[4] = compound: Cc1ncc(-c2ccnc(Nc3ccc(S(C)(=O)=O)cc3)n2)n1C(C)C
Method in brief: as §1

[5] = compound: Cn1cc(-c2ccc3c(c2)CCN3C(=O)Cc2cccc(C(F)(F)F)c2)c2c(N)ncnc21
Method in brief: as §1

quisinostat = compound: Cn1cc(CNCC2CCN(c3ncc(C(=O)NO)cn3)CC2)c2ccccc21 [quisinostat]
Method in brief: as §1

tipifarnib = compound: Cn1cncc1[C@@](N)(c1ccc(Cl)cc1)c1ccc2c(c1)c(-c1cccc(Cl)c1)cc(=O)n2C [tipifarnib]
Method in brief: as §1

[6] = compound: NC(=O)Nc1cc(-c2cccc(F)c2)sc1C(=O)N[C@H]1CCCNC1
Method in brief: as §1

[7] = compound: NC(=O)c1cnc(N[C@@H]2CCCC[C@@H]2N)nc1Nc1cccc(-n2nccn2)c1
Method in brief: as §1

[8] = compound: NC1(c2ccc(-c3nc4ccn5c(=O)[nH]nc5c4cc3-c3ccccc3)cc2)CCC1
Method in brief: as §1

Measured: log2 fold change

CDK11B (UniProt P21127)
active: crizotinib 0.461 | gandotinib 0.399
inactive: lapatinib -0.017 | pictilisib -0.006 | [1] -0.012 | duvelisib 0 | tozasertib 0.02 | doramapimod 0.031 | bafetinib -0.042 | [2] 0.007 | nilotinib -0.006 | [3] -0.015 | dasatinib -0.028 | [4] 0.087 | [5] 0.068 | quisinostat -0.023 | tipifarnib 0.01 | [6] 0.018 | [7] 0.009 | [8] -0.018

CEP55 (UniProt Q53EZ4)
inactive: lapatinib 0.006 | pictilisib 0.05 | crizotinib -0.03 | [1] -0.032 | duvelisib -0.014 | gandotinib 0.043 | tozasertib 0.109 | doramapimod 0.008 | bafetinib 0.027 | [2] 0.028 | nilotinib -0.066 | [3] 0.039 | dasatinib -0.03 | [4] 0.045 | [5] -0.02 | quisinostat -0.002 | tipifarnib -0.074 | [6] 0.013 | [7] 0.062 | [8] 0.031

CDC20 (UniProt Q12834)
inactive: lapatinib 0.092 | pictilisib -0.028 | crizotinib 0.012 | [1] 0.015 | duvelisib -0.082 | gandotinib -0.016 | tozasertib -0.027 | doramapimod 0.061 | bafetinib -0.103 | [2] 0.031 | nilotinib 0.1 | [3] -0.101 | dasatinib -0.044 | [4] -0.088 | [5] 0.017 | quisinostat -0.082 | tipifarnib -0.035 | [6] -0.01 | [7] -0.143 | [8] 0.061

CFAP36 (UniProt Q96G28)
inactive: lapatinib -0.015 | pictilisib -0.025 | crizotinib 0.05 | [1] 0.071 | duvelisib 0.036 | gandotinib -0.022 | tozasertib -0.013 | doramapimod -0.06 | bafetinib 0.015 | [2] -0.042 | nilotinib -0.037 | [3] -0.002 | dasatinib 0 | [4] -0.022 | [5] -0.041 | quisinostat 0.066 | tipifarnib 0.005 | [6] -0.024 | [7] 0.001 | [8] -0.007

CDC23 (UniProt Q9UJX2)
inactive: lapatinib 0.014 | pictilisib -0.026 | crizotinib -0.008 | [1] -0.001 | duvelisib 0.032 | gandotinib -0.071 | tozasertib -0.005 | doramapimod 0.03 | bafetinib -0.056 | [2] -0.01 | nilotinib 0.017 | [3] -0.005 | dasatinib -0.042 | [4] -0.05 | [5] 0.021 | quisinostat 0.023 | tipifarnib 0.053 | [6] -0.004 | [7] 0.012 | [8] 0.003

CDYL (UniProt Q9Y232)
inactive: lapatinib 0.088 | pictilisib 0.018 | crizotinib -0.03 | [1] -0.014 | duvelisib -0.006 | gandotinib -0.005 | tozasertib 0.045 | doramapimod -0.01 | bafetinib -0.013 | [2] 0.031 | nilotinib -0.002 | [3] -0.059 | dasatinib 0.02 | [4] -0.037 | [5] 0.04 | quisinostat -0.1 | tipifarnib 0.071 | [6] -0.01 | [7] 0.036 | [8] -0.028

CGGBP1 (UniProt Q9UFW8)
inactive: lapatinib -0.017 | pictilisib 0.074 | crizotinib 0.011 | [1] -0.061 | duvelisib -0.032 | gandotinib 0.033 | tozasertib 0.048 | doramapimod 0.057 | bafetinib 0.066 | [2] 0.013 | nilotinib 0.01 | [3] -0.052 | dasatinib 0.064 | [4] -0.043 | [5] -0.005 | quisinostat 0.02 | tipifarnib -0.005 | [6] -0.025 | [7] 0.001 | [8] 0.011

CETN2 (UniProt P41208)
inactive: lapatinib 0.017 | pictilisib -0.01 | crizotinib 0.095 | [1] 0.021 | duvelisib 0.038 | gandotinib -0.06 | tozasertib -0.061 | doramapimod 0.009 | bafetinib 0.029 | [2] -0.008 | nilotinib -0.026 | [3] 0.037 | dasatinib -0.016 | [4] -0.004 | [5] 0.002 | quisinostat 0.074 | tipifarnib 0.008 | [6] -0.001 | [7] -0.005 | [8] -0.026

Random excerpt: two records from the list.
CDC23 (UniProt Q9UJX2)
inactive: lapatinib 0.014 | pictilisib -0.026 | crizotinib -0.008 | [1] -0.001 | duvelisib 0.032 | gandotinib -0.071 | tozasertib -0.005 | doramapimod 0.03 | bafetinib -0.056 | [2] -0.01 | nilotinib 0.017 | [3] -0.005 | dasatinib -0.042 | [4] -0.05 | [5] 0.021 | quisinostat 0.023 | tipifarnib 0.053 | [6] -0.004 | [7] 0.012 | [8] 0.003

CGGBP1 (UniProt Q9UFW8)
inactive: lapatinib -0.017 | pictilisib 0.074 | crizotinib 0.011 | [1] -0.061 | duvelisib -0.032 | gandotinib 0.033 | tozasertib 0.048 | doramapimod 0.057 | bafetinib 0.066 | [2] 0.013 | nilotinib 0.01 | [3] -0.052 | dasatinib 0.064 | [4] -0.043 | [5] -0.005 | quisinostat 0.02 | tipifarnib -0.005 | [6] -0.025 | [7] 0.001 | [8] 0.011

Continued.

CDK4 (UniProt P11802)
inactive: lapatinib -0.039 | pictilisib -0.008 | crizotinib 0.017 | [1] -0.115 | duvelisib -0.004 | gandotinib 0.006 | tozasertib -0.078 | doramapimod -0.046 | bafetinib -0.038 | [2] 0.011 | nilotinib -0.077 | [3] -0.024 | dasatinib -0.008 | [4] 0.148 | [5] 0.004 | quisinostat -0.033 | tipifarnib 0.001 | [6] 0.001 | [7] 0.002 | [8] -0.019

CFL2 (UniProt Q9Y281)
inactive: lapatinib 0.025 | pictilisib -0.023 | crizotinib -0.058 | [1] -0.077 | duvelisib -0.002 | gandotinib 0.021 | tozasertib 0.082 | doramapimod -0.004 | bafetinib -0.026 | [2] 0.051 | nilotinib -0.034 | [3] 0.034 | dasatinib 0.061 | [4] -0.01 | [5] 0.017 | quisinostat -0.066 | tipifarnib -0.088 | [6] 0.015 | [7] 0.02 | [8] -0.114

CFL1 (UniProt P23528)
inactive: lapatinib 0.022 | pictilisib 0.037 | crizotinib 0.046 | [1] 0.063 | duvelisib 0.015 | gandotinib -0.018 | tozasertib -0.027 | doramapimod -0.023 | bafetinib 0.149 | [2] -0.071 | nilotinib 0.028 | [3] 0.004 | dasatinib 0.038 | [4] 0.024 | [5] 0.018 | quisinostat 0.07 | tipifarnib 0.04 | [6] -0.031 | [7] -0.008 | [8] 0.031

CDK19 (UniProt Q9BWU1)
inactive: lapatinib 0.033 | pictilisib -0.218 | crizotinib -0.128 | [1] -0.056 | duvelisib 0 | gandotinib -0.14 | tozasertib 0.153 | doramapimod 0.344 | bafetinib 0.028 | [2] 0 | nilotinib 0.205 | [3] 0.063 | dasatinib -0.052 | [4] -0.505 | [5] -0.008 | quisinostat -0.121 | tipifarnib 0.413 | [6] 0.034 | [7] -0.314 | [8] -0.105

CEP250 (UniProt Q9BV73)
inactive: lapatinib 0.015 | pictilisib -0.012 | crizotinib -0.007 | [1] -0.06 | duvelisib 0.079 | gandotinib -0.041 | tozasertib 0.116 | doramapimod 0.038 | bafetinib -0.012 | [2] 0.067 | nilotinib 0.038 | [3] -0.024 | dasatinib -0.005 | [4] 0.02 | [5] 0.138 | quisinostat -0.006 | tipifarnib -0.011 | [6] 0.02 | [7] 0.06 | [8] 0.012

CELF2 isoform 3 (UniProt O95319)
active: doramapimod -0.579
inactive: lapatinib 0.039 | pictilisib 0.032 | crizotinib 0.072 | [1] 0.104 | duvelisib -0.001 | gandotinib -0.052 | tozasertib 0.017 | bafetinib -0.042 | [2] -0.124 | nilotinib 0.054 | [3] 0.038 | dasatinib -0.015 | [4] -0.028 | [5] -0.043 | quisinostat 0.036 | tipifarnib -0.129 | [6] -0.037 | [7] -0.021 | [8] 0.068

CENPU (UniProt Q71F23)
inactive: lapatinib 0.038 | pictilisib -0.005 | crizotinib -0.026 | [1] 0.065 | duvelisib 0.026 | gandotinib -0.117 | tozasertib -0.04 | doramapimod 0.052 | bafetinib 0.043 | [2] 0.019 | nilotinib 0.03 | [3] -0.047 | dasatinib 0.032 | [4] -0.078 | [5] 0 | quisinostat -0.006 | tipifarnib -0.027 | [6] 0.004 | [7] -0.013 | [8] -0.022

CDKN2AIP (UniProt Q9NXV6)
inactive: lapatinib -0.015 | pictilisib -0.036 | crizotinib 0.024 | [1] -0.04 | duvelisib 0.017 | gandotinib 0.08 | tozasertib -0.034 | doramapimod 0.043 | bafetinib 0.016 | [2] 0.026 | nilotinib 0.002 | [3] -0.023 | dasatinib -0.004 | [4] -0.008 | [5] -0.014 | quisinostat -0.031 | tipifarnib 0.005 | [6] 0.008 | [7] -0.01 | [8] 0.001
